Laboratory results from patent EP4692105A1 (Bivision Pharmaceuticals, Inc, priority 2023, dated 2024).

Experiment: general procedure: Fmoc solid-phase peptide synthesis; CTC resin; PyBOP/DIEA
Details: whole synthesis, scale 0.65 mmol

“Hex[Cys(3MeBn)-hhy39-Pro-Thr-Gln-Phe-Cys]-Glu-(EDA-DOTA)-OH” showed a crude mass of 550 mg.
